Laboratory results from publication PMC9270398.
These are yes or no findings as the source states them, for the method shown. In cells and extracts the contact can be indirect. A yes stands for co-enrichment or nearness to the bait. Other partners may have been found. Sequences can lack the tags named with a protein. Values belong to the molecule of their own block, whether it stands above or below them.

The chains behind the UniProt entries cited, without tags or fusion partners.
UniProt O14980: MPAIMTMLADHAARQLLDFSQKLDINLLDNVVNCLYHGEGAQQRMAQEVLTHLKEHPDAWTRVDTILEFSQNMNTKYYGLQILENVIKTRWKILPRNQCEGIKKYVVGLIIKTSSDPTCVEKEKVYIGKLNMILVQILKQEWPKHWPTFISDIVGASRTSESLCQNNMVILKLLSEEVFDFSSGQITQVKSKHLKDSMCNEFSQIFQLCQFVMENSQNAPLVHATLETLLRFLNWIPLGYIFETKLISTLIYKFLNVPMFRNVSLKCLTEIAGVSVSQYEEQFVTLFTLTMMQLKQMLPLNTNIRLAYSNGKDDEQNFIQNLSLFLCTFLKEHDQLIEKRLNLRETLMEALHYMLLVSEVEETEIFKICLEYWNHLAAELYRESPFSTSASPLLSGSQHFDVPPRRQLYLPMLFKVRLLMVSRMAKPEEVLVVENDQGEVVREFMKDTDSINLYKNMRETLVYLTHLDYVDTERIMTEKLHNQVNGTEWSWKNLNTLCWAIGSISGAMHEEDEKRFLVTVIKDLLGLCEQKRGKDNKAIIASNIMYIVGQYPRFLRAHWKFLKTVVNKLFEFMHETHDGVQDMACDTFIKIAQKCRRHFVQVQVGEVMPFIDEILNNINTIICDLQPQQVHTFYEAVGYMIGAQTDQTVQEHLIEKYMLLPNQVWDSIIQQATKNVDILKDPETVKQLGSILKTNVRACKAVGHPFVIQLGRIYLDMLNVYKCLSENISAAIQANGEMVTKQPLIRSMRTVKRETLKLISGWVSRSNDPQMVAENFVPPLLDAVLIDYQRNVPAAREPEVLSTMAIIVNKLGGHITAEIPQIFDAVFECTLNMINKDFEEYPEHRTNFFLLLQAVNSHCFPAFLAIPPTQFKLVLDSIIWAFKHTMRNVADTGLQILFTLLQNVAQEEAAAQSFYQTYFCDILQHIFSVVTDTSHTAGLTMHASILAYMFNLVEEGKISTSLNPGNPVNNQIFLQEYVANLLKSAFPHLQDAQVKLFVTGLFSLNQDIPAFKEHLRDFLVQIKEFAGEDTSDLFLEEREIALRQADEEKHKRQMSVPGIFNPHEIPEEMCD
UniProt Q8NDV7: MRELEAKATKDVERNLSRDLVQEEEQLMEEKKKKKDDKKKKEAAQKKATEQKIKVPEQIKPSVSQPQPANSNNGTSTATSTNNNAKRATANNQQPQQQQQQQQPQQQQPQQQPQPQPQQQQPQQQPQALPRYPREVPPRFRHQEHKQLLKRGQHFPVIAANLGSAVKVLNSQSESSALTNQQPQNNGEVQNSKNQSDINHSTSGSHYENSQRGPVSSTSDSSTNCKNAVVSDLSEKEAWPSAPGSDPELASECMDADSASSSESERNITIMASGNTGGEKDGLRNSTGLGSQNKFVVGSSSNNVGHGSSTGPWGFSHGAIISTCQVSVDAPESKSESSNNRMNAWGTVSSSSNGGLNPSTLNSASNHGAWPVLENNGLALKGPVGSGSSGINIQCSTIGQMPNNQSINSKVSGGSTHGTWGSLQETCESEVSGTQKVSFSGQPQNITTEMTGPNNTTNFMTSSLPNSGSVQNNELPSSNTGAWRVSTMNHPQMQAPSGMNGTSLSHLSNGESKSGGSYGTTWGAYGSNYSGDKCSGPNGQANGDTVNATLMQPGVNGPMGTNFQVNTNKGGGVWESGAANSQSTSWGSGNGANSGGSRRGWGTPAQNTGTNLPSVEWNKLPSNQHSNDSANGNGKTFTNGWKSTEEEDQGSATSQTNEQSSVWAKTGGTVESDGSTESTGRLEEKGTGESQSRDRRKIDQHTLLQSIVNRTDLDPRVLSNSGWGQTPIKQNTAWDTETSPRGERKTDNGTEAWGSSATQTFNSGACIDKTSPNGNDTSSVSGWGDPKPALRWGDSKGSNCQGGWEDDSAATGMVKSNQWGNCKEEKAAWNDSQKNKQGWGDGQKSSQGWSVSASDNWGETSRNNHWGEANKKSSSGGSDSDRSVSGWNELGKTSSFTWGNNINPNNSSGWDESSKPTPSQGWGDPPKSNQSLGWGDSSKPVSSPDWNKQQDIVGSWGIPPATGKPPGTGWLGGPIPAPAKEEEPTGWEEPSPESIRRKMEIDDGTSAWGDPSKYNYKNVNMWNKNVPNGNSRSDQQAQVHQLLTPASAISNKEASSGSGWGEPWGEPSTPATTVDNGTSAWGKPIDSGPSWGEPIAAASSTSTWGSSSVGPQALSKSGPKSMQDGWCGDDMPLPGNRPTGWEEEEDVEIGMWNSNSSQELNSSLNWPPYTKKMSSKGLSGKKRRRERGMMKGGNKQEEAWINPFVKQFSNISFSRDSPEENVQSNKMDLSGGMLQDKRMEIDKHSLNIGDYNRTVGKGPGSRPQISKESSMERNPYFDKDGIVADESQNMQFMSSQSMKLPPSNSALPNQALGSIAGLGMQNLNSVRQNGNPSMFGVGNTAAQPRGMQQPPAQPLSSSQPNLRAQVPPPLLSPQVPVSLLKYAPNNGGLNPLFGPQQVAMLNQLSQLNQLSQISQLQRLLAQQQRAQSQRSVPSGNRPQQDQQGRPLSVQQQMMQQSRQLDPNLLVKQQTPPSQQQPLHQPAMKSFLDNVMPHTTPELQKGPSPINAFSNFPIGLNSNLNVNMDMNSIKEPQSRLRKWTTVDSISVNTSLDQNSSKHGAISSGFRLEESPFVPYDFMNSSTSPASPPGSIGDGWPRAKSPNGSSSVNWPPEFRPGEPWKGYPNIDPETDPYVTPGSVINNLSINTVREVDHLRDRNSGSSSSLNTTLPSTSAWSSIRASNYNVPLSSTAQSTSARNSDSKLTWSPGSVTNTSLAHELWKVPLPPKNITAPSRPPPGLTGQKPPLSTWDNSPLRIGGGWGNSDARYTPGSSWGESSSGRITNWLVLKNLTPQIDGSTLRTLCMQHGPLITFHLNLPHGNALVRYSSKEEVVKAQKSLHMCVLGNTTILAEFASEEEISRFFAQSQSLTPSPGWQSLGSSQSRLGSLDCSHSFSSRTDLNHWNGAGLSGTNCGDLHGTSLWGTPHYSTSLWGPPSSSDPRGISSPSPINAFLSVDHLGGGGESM

Target: T1, GFP-TRIM24 fusion protein (tripartite motif-containing 24) (not stated (human or mouse cDNA cloned)) (UniProt O15164)
T1 sequence: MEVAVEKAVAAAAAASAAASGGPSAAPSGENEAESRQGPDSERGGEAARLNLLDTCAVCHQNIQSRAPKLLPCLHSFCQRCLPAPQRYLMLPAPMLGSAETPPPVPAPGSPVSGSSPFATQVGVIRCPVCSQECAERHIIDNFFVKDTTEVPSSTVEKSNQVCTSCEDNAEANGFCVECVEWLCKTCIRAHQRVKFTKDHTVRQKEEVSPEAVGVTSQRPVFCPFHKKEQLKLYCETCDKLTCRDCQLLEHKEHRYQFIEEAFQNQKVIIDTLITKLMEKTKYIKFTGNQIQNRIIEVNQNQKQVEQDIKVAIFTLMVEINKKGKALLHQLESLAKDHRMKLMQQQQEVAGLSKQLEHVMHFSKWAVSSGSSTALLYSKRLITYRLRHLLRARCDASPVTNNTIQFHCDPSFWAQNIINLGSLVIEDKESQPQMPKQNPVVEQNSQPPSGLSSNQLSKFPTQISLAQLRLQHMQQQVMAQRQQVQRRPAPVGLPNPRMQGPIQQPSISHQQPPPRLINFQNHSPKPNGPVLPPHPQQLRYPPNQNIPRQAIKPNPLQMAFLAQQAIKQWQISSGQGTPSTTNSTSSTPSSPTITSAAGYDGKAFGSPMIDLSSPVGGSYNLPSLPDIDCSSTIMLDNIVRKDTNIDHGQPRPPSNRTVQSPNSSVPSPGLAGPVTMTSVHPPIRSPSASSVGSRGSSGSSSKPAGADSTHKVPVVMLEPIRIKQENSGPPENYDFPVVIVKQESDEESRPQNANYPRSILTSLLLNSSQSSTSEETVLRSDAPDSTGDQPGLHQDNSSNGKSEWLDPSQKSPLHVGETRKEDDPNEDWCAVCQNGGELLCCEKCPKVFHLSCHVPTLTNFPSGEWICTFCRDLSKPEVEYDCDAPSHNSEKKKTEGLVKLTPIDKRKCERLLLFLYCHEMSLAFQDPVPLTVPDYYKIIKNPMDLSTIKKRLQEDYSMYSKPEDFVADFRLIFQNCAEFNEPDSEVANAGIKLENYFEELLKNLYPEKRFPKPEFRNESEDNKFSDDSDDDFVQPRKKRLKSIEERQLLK
Assay: affinity purification with mass spectrometry; GFP-TRIM24 (free GFP as control) expressed in HEK293 cells, immunoprecipitated from lysates with GFP-Trap-agarose, SDS-PAGE, LC-MS/MS

binding: binds
Molecule: XPO1 (exportin-1), endogenous in HEK293 cells (from UniProt O14980 1-1071)

binding: binds
Molecule: GW182 protein, endogenous in HEK293 cells (from UniProt Q8NDV7 1-1962)

binding: binds
B1: LSM1, endogenous in HEK293 cells (protein, UniProt O15116 1-133)
chain: MNYMPGTASLIEDIDKKHLVLLRDGRTLIGFLRSIDQFANLVLHQTVERIHVGKKYGDIPRGIFVVRGENVVLLGEIDLEKESDTPLQQVSIEEILEEQRVEQQTKLEAEKLKVQALKDRGLSIPRADTLDEY

binding: binds
B2: EDC4 (enhancer of decapping protein 4), endogenous in HEK293 cells (protein, UniProt Q6P2E9-1 1-1401)
chain: MASCASIDIEDATQHLRDILKLDRPAGGPSAESPRPSSAYNGDLNGLLVPDPLCSGDSTSANKTGLRTMPPINLQEKQVICLSGDDSSTCIGILAKEVEIVASSDSSISSKARGSNKVKIQPVAKYDWEQKYYYGNLIAVSNSFLAYAIRAANNGSAMVRVISVSTSERTLLKGFTGSVADLAFAHLNSPQLACLDEAGNLFVWRLALVNGKIQEEILVHIRQPEGTPLNHFRRIIWCPFIPEESEDCCEESSPTVALLHEDRAEVWDLDMLRSSHSTWPVDVSQIKQGFIVVKGHSTCLSEGALSPDGTVLATASHDGYVKFWQIYIEGQDEPRCLHEWKPHDGRPLSCLLFCDNHKKQDPDVPFWRFLITGADQNRELKMWCTVSWTCLQTIRFSPDIFSSVSVPPSLKVCLDLSAEYLILSDVQRKVLYVMELLQNQEEGHACFSSISEFLLTHPVLSFGIQVVSRCRLRHTEVLPAEEENDSLGADGTHGAGAMESAAGVLIKLFCVHTKALQDVQIRFQPQLNPDVVAPLPTHTAHEDFTFGESRPELGSEGLGSAAHGSQPDLRRIVELPAPADFLSLSSETKPKLMTPDAFMTPSASLQQITASPSSSSSGSSSSSSSSSSSLTAVSAMSSTSAVDPSLTRPPEELTLSPKLQLDGSLTMSSSGSLQASPRGLLPGLLPAPADKLTPKGPGQVPTATSALSLELQEVEPLGLPQASPSRTRSPDVISSASTALSQDIPEIASEALSRGFGSSAPEGLEPDSMASAASALHLLSPRPRPGPELGPQLGLDGGPGDGDRHNTPSLLEAALTQEASTPDSQVWPTAPDITRETCSTLAESPRNGLQEKHKSLAFHRPPYHLLQQRDSQDASAEQSDHDDEVASLASASGGFGTKVPAPRLPAKDWKTKGSPRTSPKLKRKSKKDDGDAAMGSRLTEHQVAEPPEDWPALIWQQQRELAELRHSQEELLQRLCTQLEGLQSTVTGHVERALETRHEQEQRRLERALAEGQQRGGQLQEQLTQQLSQALSSAVAGRLERSIRDEIKKTVPPCVSRSLEPMAGQLSNSVATKLTAVEGSMKENISKLLKSKNLTDAIARAAADTLQGPMQAAYREAFQSVVLPAFEKSCQAMFQQINDSFRLGTQEYLQQLESHMKSRKAREQEAREPVLAQLRGLVSTLQSATEQMAATVAGSVRAEVQHQLHVAVGSLQESILAQVQRIVKGEVSVALKEQQAAVTSSIMQAMRSAAGTPVPSAHLDCQAQQAHILQLLQQGHLNQAFQQALTAADLNLVLYVCETVDPAQVFGQPPCPLSQPVLLSLIQQLASDLGTRTDLKLSYLEEAVMHLDHSDPITRDHMGSVMAQVRQKLFQFLQAEPHNSLGKAARRLSLMLHGLVTPSLP
